Data on 19 molecules can be found in paper PMC5618341 (Chemical Science, 2017).

Entries after “also recorded” stand apart in the source; their conditions may differ. For some of these results: Some peptides are written in HELM: one residue between dots, names in brackets for other building blocks, links after the first $. Starred links: 1 amine or outer side, 2 acyl side, 3 side chain; linkers in the order of their positions; H or OH if unused. Non-standard residues stand in square brackets, D forms with d. AMPB = O=C(c1ccc(N=Nc2ccc(CN[*:1])cc2)cc1)[*:2]; Ahx = NCCCCCC(=O)O; βAla = NCCC(=O)O Bounds are passed on as bounds.

A short description of series [1]: Control for quenching artefacts in the FP assay. The conditions noted are these: increasing AMPB concentrations; 20 nM tracer, 72 nM WDR5, 0.5 µM peptide 3 or 20 nM fluorescein.
Series [2] can be described thus: general procedure: Fmoc solid-phase peptide synthesis; TentaGel S RAM (0.25 mmol/g); rink amide MBHA; DIC/OxymaPure. The conditions noted are these: whole synthesis; for final HPLC purity: 220 nm.
A short description of series [3]: general procedure: Fmoc solid-phase peptide synthesis; rink amide; DIC/OxymaPure. The conditions noted are these: whole synthesis; for final HPLC purity: analytical HPLC, integrated peak areas, 220 nm.
Where [4] appears, read: analytical HPLC, integrated peak areas, scale of the general procedure 20-40 umol.
[5] abbreviates: scale of the general procedure 20-40 umol.
Where [6] appears, read: analytical HPLC, integrated peak areas, scale 20 µmol.

Consider `NCc1ccc(N=Nc2ccc(C(=O)O)cc2)cc1` [AMPB, 4-[(4′-aminomethyl)phenylazo]benzoic acid], for which, in series [1], the “effect on FP signal (quenching control)” value is “not affect the milli Polarization values; also recorded: absence of quenching artefacts”.
“Ac-ARA[AMPB]VHLRKS-NH2 (SMILES CC(=O)N[C@@H](C)C(=O)N[C@@H](CCCNC(=N)N)C(=O)N[C@@H](C)C(=O)NCc1ccc(N=Nc2ccc(C(=O)N[C@H](C(=O)N[C@@H](Cc3c[nH]cn3)C(=O)N[C@@H](CC(C)C)C(=O)N[C@@H](CCCNC(=N)N)C(=O)N[C@@H](CCCCN)C(=O)N[C@@H](CO)C(N)=O)C(C)C)cc2)cc1)”: in series [2], the isolated mass was found to be 2.70 mg. In series [2] (setting [4]), the “final HPLC purity” value is on record as at least 99%. Moreover, the isolated yield in series [2] (setting [5]) was 13%.
In the case of “Ac-ART[AMPB]VY-NH2 (SMILES CC(=O)N[C@@H](C)C(=O)N[C@@H](CCCNC(=N)N)C(=O)N[C@H](C(=O)NCc1ccc(N=Nc2ccc(C(=O)N[C@H](C(=O)N[C@@H](Cc3ccc(O)cc3)C(N)=O)C(C)C)cc2)cc1)[C@@H](C)O)”, in series [2] (setting [6]), the “final HPLC purity” value is “Purity = 99%”. Also, in series [2] (scale 20 µmol), the isolated mass was 11.0 mg and the isolated yield was found to be 55%.
For the molecule H2N-(Arg-Ahx-Arg)4-Ahx-βA a-CONH2, the isolated mass in series [2] came to 18.4 mg. In series [2] (setting [4]), the “final HPLC purity” value is at least 99%. In series [2] (setting [5]), this molecule had an isolated yield of 45%.
Regarding “H2N-Ser-AMPB-Ala-Arg-Ala-Glu-Val-His-Leu-Arg-Lys-Ser-CONH2”, the isolated mass in series [2] worked out at 14.8 mg. In addition, the “final HPLC purity” value in series [2] (setting [4]) was at least 99%. The molecule further registered an isolated yield in series [2] (setting [5]) of 19%.
The matching figures for “H2N-Ser-Ala-Arg-AMPB-Glu-Val-His-Leu-Arg-Lys-Ser-CONH2”: 14.4 mg, at least 99% and 21%.
“H2N-Ser-Ala-Arg-Ala-Glu-Val-His-Leu-Arg-Lys-Ser-R8-CONH2” showed an isolated mass in series [2] of 42.7 mg. Besides, the “final HPLC purity” value in series [2] (setting [4]) is listed as at least 99%. In series [2] (setting [5]), this molecule registered an isolated yield of 13%.
Consider H-SARAEVHLRKS-NH2, for which the isolated mass in series [2] was 62.7 mg. For the same molecule, the “final HPLC purity” value in series [2] (setting [5]) is reported as at least 99%. Besides, in series [2] (on resin-bound peptide taken for cleavage, scale of the general procedure 20-40 umol), the isolated yield is on record as 33%.
In the case of “H-SARAEVHLRKSR[Ahx]RR[Ahx]RR[Ahx]RR[Ahx]R[Ahx][βAla]-NH2 (SMILES CC(C)C[C@H](NC(=O)[C@H](Cc1c[nH]cn1)NC(=O)[C@@H](NC(=O)[C@H](CCC(=O)O)NC(=O)[C@H](C)NC(=O)[C@H](CCCNC(=N)N)NC(=O)[C@H](C)NC(=O)[C@@H](N)CO)C(C)C)C(=O)N[C@@H](CCCNC(=N)N)C(=O)N[C@@H](CCCCN)C(=O)N[C@@H](CO)C(=O)N[C@@H](CCCNC(=N)N)C(=O)NCCCCCC(=O)N[C@@H](CCCNC(=N)N)C(=O)N[C@@H](CCCNC(=N)N)C(=O)NCCCCCC(=O)N[C@@H](CCCNC(=N)N)C(=O)N[C@@H](CCCNC(=N)N)C(=O)NCCCCCC(=O)N[C@@H](CCCNC(=N)N)C(=O)N[C@@H](CCCNC(=N)N)C(=O)NCCCCCC(=O)N[C@@H](CCCNC(=N)N)C(=O)NCCCCCC(=O)NCCC(N)=O)”, the isolated mass in series [2] was 6 mg. The “final HPLC purity” value in series [2] (setting [4]) is reported as at least 99%. Besides, the isolated yield in series [2] (setting [5]) is reported as 2%.
“H-SARAEVHLR[AMPB]S-NH2 (SMILES CC(C)C[C@H](NC(=O)[C@H](Cc1c[nH]cn1)NC(=O)[C@@H](NC(=O)[C@H](CCC(=O)O)NC(=O)[C@H](C)NC(=O)[C@H](CCCNC(=N)N)NC(=O)[C@H](C)NC(=O)[C@@H](N)CO)C(C)C)C(=O)N[C@@H](CCCNC(=N)N)C(=O)NCc1ccc(N=Nc2ccc(C(=O)N[C@@H](CO)C(N)=O)cc2)cc1)” had an isolated mass in series [3] of 7.7 mg. Moreover, in series [3] (setting [5]), the “final HPLC purity” value was at least 99% and the isolated yield came out at 65%.
Taken in the same sequence, the figures for “H-SARAEVHL[AMPB]KS-NH2 (SMILES CC(C)C[C@H](NC(=O)[C@H](Cc1c[nH]cn1)NC(=O)[C@@H](NC(=O)[C@H](CCC(=O)O)NC(=O)[C@H](C)NC(=O)[C@H](CCCNC(=N)N)NC(=O)[C@H](C)NC(=O)[C@@H](N)CO)C(C)C)C(=O)NCc1ccc(N=Nc2ccc(C(=O)N[C@@H](CCCCN)C(=O)N[C@@H](CO)C(N)=O)cc2)cc1)” were 9.4 mg, “Purity = 99%” and 29%.
The molecule “H-SARAEVH[AMPB]RKS-NH2 (SMILES CC(C)[C@H](NC(=O)[C@H](CCC(=O)O)NC(=O)[C@H](C)NC(=O)[C@H](CCCNC(=N)N)NC(=O)[C@H](C)NC(=O)[C@@H](N)CO)C(=O)N[C@@H](Cc1c[nH]cn1)C(=O)NCc1ccc(N=Nc2ccc(C(=O)N[C@@H](CCCNC(=N)N)C(=O)N[C@@H](CCCCN)C(=O)N[C@@H](CO)C(N)=O)cc2)cc1)” returned an isolated mass in series [2] of 1.8 mg. Besides, the “final HPLC purity” value in series [2] (setting [4]) was “Purity = 98%”. The molecule further showed an isolated yield in series [2] (setting [5]) of 22%.
The matching figures for “H-SARAEV[AMPB]LRKS-NH2 (SMILES CC(C)C[C@H](NC(=O)c1ccc(N=Nc2ccc(CNC(=O)[C@@H](NC(=O)[C@H](CCC(=O)O)NC(=O)[C@H](C)NC(=O)[C@H](CCCNC(=N)N)NC(=O)[C@H](C)NC(=O)[C@@H](N)CO)C(C)C)cc2)cc1)C(=O)N[C@@H](CCCNC(=N)N)C(=O)N[C@@H](CCCCN)C(=O)N[C@@H](CO)C(N)=O)”: 7.0 mg, at least 99% and 25%.
“H-SARAE[AMPB]HLRKS-NH2 (SMILES CC(C)C[C@H](NC(=O)[C@H](Cc1c[nH]cn1)NC(=O)c1ccc(N=Nc2ccc(CNC(=O)[C@H](CCC(=O)O)NC(=O)[C@H](C)NC(=O)[C@H](CCCNC(=N)N)NC(=O)[C@H](C)NC(=O)[C@@H](N)CO)cc2)cc1)C(=O)N[C@@H](CCCNC(=N)N)C(=O)N[C@@H](CCCCN)C(=O)N[C@@H](CO)C(N)=O)” had an isolated mass in series [2] of 1.4 mg. The “final HPLC purity” value in series [2] (setting [4]) is listed as “Purity ≥ 99%”. The same molecule returned an isolated yield in series [2] (setting [5]) of 9%.
As to “H-SARA[AMPB]HLRKS-NH2 (SMILES CC(C)C[C@H](NC(=O)[C@H](Cc1c[nH]cn1)NC(=O)c1ccc(N=Nc2ccc(CNC(=O)[C@H](C)NC(=O)[C@H](CCCNC(=N)N)NC(=O)[C@H](C)NC(=O)[C@@H](N)CO)cc2)cc1)C(=O)N[C@@H](CCCNC(=N)N)C(=O)N[C@@H](CCCCN)C(=O)N[C@@H](CO)C(N)=O)”, the “final HPLC purity” value in series [2] (setting [6]) was “Purity = 98%”. In addition, in series [2] (scale 20 µmol), the isolated mass is on record as 15.7 mg and the isolated yield is given as 43%.
With H-SARA[AMPB]VHLRKSRRRRRRRR-NH2, the “final HPLC purity” value in series [2] (analytical HPLC, integrated peak areas, scale 0.1 mmol) is listed as at least 99%. In series [2] (scale 0.1 mmol), this molecule had an isolated mass of 86.5 mg and an isolated yield of 21%.
Consider H-S[AMPB]RAEVHLRKS-NH2, for which, in series [2], the isolated mass turned out to be 14.1 mg. For the same molecule, in series [2] (setting [4]), the “final HPLC purity” value is given as at least 99%. This molecule registered an isolated yield in series [2] (setting [5]) of 20%.
The matching figures for PEPTIDE1{R.R.R.R.R.R.R.R.[am]}$$$$V2.0: 24.2 mg, at least 99% and 27%.
In the case of “PEPTIDE1{[ac].A.R.T.E.V.H.L.R.K.S.[Ahx].[Ahx].K.[am]}|CHEM1{[5FAM]}$PEPTIDE1,CHEM1,14:R3-1:R2$$$V2.0”, in series [3] (scale 60 µmol), the “final HPLC purity” value is “Purity = 99%”, the isolated mass amounted to 19.1 mg and the isolated yield is reported as 56%.
